The target of this assay is exCCR5-6xHis (human). In words: pull down.

By UniProt entry, the sequences of proteins in these tests, tags left out. Residues count along the entry.
UniProt P13501, residues 24-91: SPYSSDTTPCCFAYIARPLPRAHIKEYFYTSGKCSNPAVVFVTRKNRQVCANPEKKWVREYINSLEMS

Results are given in words; binding and its absence hold for the method and conditions named. Some entries that bind do so weakly or less than the wild type.

“RANTES (CCL5) (from UniProt P13501 24-91) (ligand)”: the binding entry is listed as “binds”.

The values above are taken from patent US20100249022A1.
